This passage reports MIC results from ChEMBL document CHEMBL4513161, “CO-ADD screening of MMV (CH) - Pandemic Response Box” (2021).

In one test the test system is Candida albicans. Particulars: ASSAY_TEST Inhibition of Fungal Growth; detection method Absorption (OD530); plate type 384well; NBS; CORNING #3640.
For the next test, the system named is Pseudomonas aeruginosa. The conditions noted are these: ASSAY_TEST Inhibition of Bacterial Growth; detection method Absorption (OD600); MEDIA CAMHB; plate type 384well; NBS; CORNING #3640; time 18 hr.
A further test has as its system Escherichia coli. The conditions noted are these: ASSAY_TEST Inhibition of Bacterial Growth; detection method Absorption (OD600); MEDIA CAMHB; plate type 384well; NBS; CORNING #3640; time 18 hr.
The next test relates to Acinetobacter baumannii. The conditions noted are these: ASSAY_TEST Inhibition of Bacterial Growth; detection method Absorption (OD600); MEDIA CAMHB; plate type 384well; NBS; CORNING #3640; time 18 hr.
The subject of a further test is Staphylococcus aureus. The conditions noted are these: ASSAY_TEST Inhibition of Bacterial Growth; detection method Absorption (OD600); MEDIA CAMHB; plate type 384well; NBS; CORNING #3640; time 18 hr.
In the next test the test system is Klebsiella pneumoniae. The conditions noted are these: ASSAY_TEST Inhibition of Bacterial Growth; detection method Absorption (OD600); MEDIA CAMHB; plate type 384well; NBS; CORNING #3640; time 18 hr.

In the case of `Cl.Clc1ccc(COC(Cn2ccnc2)c2ccc(Cl)cc2Cl)c(Cl)c1` (stereo unspecified), the MIC – broadly, the lowest concentration found to suppress growth – is “<=0.1562 uM” against Candida albicans; over 20 µM in the test with Pseudomonas aeruginosa; over 20 µM in the test on Escherichia coli; over 20 µM in the test with Acinetobacter baumannii; over 20 µM with Staphylococcus aureus; over 20 µM with Klebsiella pneumoniae.
